Data published in patent US20250297262A1.
Results are given in words; binding and its absence hold for the method and conditions named. Some binding calls cover weakened binding; strength is not graded here.

The chains behind the UniProt entries cited, without tags or fusion partners. Residues count along the entry.
UniProt P01574, residues 22-187: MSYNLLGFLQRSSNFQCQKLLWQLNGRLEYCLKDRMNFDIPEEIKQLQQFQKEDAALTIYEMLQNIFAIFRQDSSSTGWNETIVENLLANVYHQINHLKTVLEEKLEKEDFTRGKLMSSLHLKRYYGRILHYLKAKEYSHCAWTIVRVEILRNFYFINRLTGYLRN

Molecular target: T1, IFNAR2-S (short isoform of Interferon Alpha And Beta Receptor Subunit 2) (human)
T1 sequence: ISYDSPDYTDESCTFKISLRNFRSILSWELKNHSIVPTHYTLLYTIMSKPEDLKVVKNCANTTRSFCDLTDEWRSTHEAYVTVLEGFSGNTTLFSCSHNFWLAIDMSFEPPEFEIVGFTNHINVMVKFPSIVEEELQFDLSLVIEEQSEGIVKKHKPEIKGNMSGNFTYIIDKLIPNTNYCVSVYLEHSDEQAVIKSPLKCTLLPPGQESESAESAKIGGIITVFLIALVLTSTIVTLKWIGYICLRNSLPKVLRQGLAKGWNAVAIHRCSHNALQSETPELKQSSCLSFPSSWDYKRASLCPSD
Experiment: ELISA of residual IFNb in culture media of wild-type and IFNAR2 isoform KO HeLa lines after 24 h and 48 h with 1 U/ml IFNb

In the case of “IFNb (type I interferon beta) (from UniProt P01574 22-187) (ligand)”, the binding is reported as “binds”.
